Results from US10736941B2, “Cell membrane-permeating peptide” (NATIONAL UNIVERSITY CORPORATION KUMAMOTO UNIVERSITY, priority 2015, dated 2020).
No dose or concentration is given here for some results.

Test system: Caco-2 cells
Test: Screening of phage library (C7C, 7 random amino acids) for peptides permeating Caco-2 cells
Format: cell-based, human
Details: appearance frequency of the 7-amino-acid sequence in three experiments of Caco-2 permeation selection

Substance: DNPGNET (cyclic peptide; identified using phage display)
- Appearance Frequency: 3

Substance: HSNDPRN (cyclic; identified using phage display)
- Appearance Frequency: 3

Substance: PFMSVAN (cyclic; identified using phage display)
- Appearance Frequency: 2

Substance: TVSRPAF (cyclic; identified using phage display)
- Appearance Frequency: 3
